Source: US6699686B1, “Modified nuclear glucocorticoid receptor, fusion protein, and DNA fragments coding for said receptor and said fusion protein” (Association pour le Development de la Recherche en …, priority 1996, dated 2004)
At least one structure is not confirmed: it was looked up by name or label, or the drawing left a doubt. Some results were stated once for a whole list of compounds, not compound by compound.

What was measured:
[1] = molecular target: T1, Cre-LBD[GR(I747/T)] (Homo sapiens, UniProt P04150, I747T); assay: PCR analysis of recombinase activity in RXRα+/−(LNL):Cre-GR(I747/T) line constitutively expressing the chimeric protein; format: cell-based; conditions: concentrations tested 10^−9 to 10^−6 M
T1 construct: the region containing the mutated LBD of HG1 [aa 500-777]; Cre recombinase aa 1-343 (bacteriophage P1); F region of the human estrogen receptor (aa 553-595); expressed in transfected cells
T1 sequence (P04150 500-777 I747T): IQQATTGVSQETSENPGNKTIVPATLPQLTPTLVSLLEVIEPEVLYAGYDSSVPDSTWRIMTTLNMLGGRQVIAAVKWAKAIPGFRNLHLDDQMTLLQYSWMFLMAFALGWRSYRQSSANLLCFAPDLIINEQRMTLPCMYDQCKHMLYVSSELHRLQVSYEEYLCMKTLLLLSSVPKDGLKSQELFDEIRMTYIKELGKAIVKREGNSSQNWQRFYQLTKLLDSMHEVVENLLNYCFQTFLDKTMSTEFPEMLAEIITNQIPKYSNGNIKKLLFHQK
Experimental: The resistant clones were obtained according to the procedure described by Metzger et al. (28).
The DNA amplifications were carried out using the “Polymerase Chain Reaction” (PCR) technique according to the protocol described by Chen and Evans (60). The primers used are: SB211 and PZ105, having respectively as nucleotide sequence 5′-[…]-3′ (SEQ ID NO: 10) and 5′-[…]-3′ (SEQ ID NO: 11). After denaturation for 8 min at 94° C., 2.5 units of Taq polymerase are added. The amplification is carried out by performing 35 cycles (30 sec. at 94° C., 30 sec. at 50° C.) followed by one cycle (30 sec. at 94° C., 30 sec. at 50° C., 5 min at 72° C.), the product of which is stored at 4° C.
The products of the reactions were separated on polyacrylamide (10%) or agarose (2.5%) gel. […]
The amplified DNA was separated on agarose gel and analyzed according to the Southern technique. The amplified fragments corresponding to the wild-type and recombinant alleles were detected by hybridization with the aid of the synthetic oligonucleotide (5′-[…]-3′) (SEQ ID NO: 12), radiolabeled at the 5′ end with T4 polynucleotide kinase. The signal was visualited and quantified with the aid of a “phosphoimager” (Fujix bas2000).
The recombinant allele was detected according to the procedure described in FIG. 8. The amplified DNA was separated on agarose gel and analyzed according to the Southern technique. […]

[2] = molecular target: T1, Cre-LBD[GR(I747/T)]; assay: PCR test of recombinase activity in HeLa cells cotransfected with pCre-LBD[GR(I747/T)] and pRXRα(LNL); format: cell-based; conditions: ligand 10^−7 M, 72 hours
Experimental: [optionally cotransfected with 5 μg of the vector pRXRα^(LNL) for the HeLa cells] with the aid of an electroporator (Bio-Rad gene pulser), set at 200 V and 960 μF. The cells were then inoculated at 10^6 cells per 100 mm dish and treated, if necessary, with ligands.
The products of the reaction were separated on acrylamide gel and stained with ethidium bromide. Lane 1 corresponds to the loading of the 1 kb ladder size marker (GibcoBRL).

CC1(C)O[C@@H]2C[C@H]3[C@@H]4CCC5=CC(=O)C=C[C@]5(C)[C@@]4(F)[C@@H](O)C[C@]3(C)[C@]2(C(=O)CO)O1 [TA, triamcinolone acetonide]
concentration from which a recombinase activity is observed [1]: ≥ 10^−9 M | recombinase activity (PCR band of recombinant fragment) [2]: a 191 bp band corresponding to the recombinant fragment is amplified
